Source: article PMC7819943, “Rice protein-binding microarrays: a tool to detect cis-acting elements near promoter regions in rice”
This is one part of the list.

biological target: T1, OsSMF1 (Oryza sativa, UniProt Q6ZLB0 1-436); assay: protein-binding microarray (RPBM); PBS, 2% BSA, 51.3 ng/ul salmon testes DNA, 50 uM zinc acetate, 200 nM TF, 25 C, 1 h; high values mean tight binding; settings: protein: recombinant; tags: N-terminal polyhistidine and DsRed monomer fusion (pET32a); chain copies: 2; label: CyDye5-dUTP incorporated in the synthesized complementary strand; 3' TTTTT single-stranded linker to array surface; dsDNA, one strand shown
T1 sequence: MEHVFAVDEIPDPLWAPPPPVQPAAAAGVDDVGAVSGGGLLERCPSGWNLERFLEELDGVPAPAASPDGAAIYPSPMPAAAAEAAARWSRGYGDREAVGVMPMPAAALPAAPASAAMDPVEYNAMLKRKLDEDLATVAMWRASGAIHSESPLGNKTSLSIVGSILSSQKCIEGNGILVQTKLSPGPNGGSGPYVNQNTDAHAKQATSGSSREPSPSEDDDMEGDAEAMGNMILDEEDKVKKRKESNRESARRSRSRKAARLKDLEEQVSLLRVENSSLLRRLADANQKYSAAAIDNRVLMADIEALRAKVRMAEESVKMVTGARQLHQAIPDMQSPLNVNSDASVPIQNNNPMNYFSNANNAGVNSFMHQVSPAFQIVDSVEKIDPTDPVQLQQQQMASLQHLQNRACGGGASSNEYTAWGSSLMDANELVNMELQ
Procedure, shortened: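 Ni–NTA purification followed expression in E. coli BL21-CodonPlus of transcription factors fused N-terminally to a polyhistidine tag and DsRed. At 200 nM in PBS with 2% BSA, salmon testes DNA and 50 µM zinc acetate, the protein was incubated for 1 h at 25 °C with a custom Agilent array that had been primer-extended with Cy5-dUTP and blocked with 2% BSA. After washing, the array was read on an Axon 4000B scanner. The binding signal is per-feature fluorescence intensity in arbitrary units.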

Sequence	binding signal
CGTTCTGCACCGTTGGCATGGTCATGTGCTCGGAGAGGAGCGGAGTCACCTAGTGCAG	3150 fluorescence intensity (a.u.)
GTATACAGTAACAACACGGTATGTAGTATCATTCGCAGTGCGGAGTCACCTAGTGCAG	32500 fluorescence intensity (a.u.)
TGCTTTCCTCCCTTTATTACTACATCATGCGCCTTCGTGACGGAGTCACCTAGTGCAG	3370 fluorescence intensity (a.u.)
AACTCCGGCCTCCCGGCCACCAGTCACACGACTCACGGCACGGAGTCACCTAGTGCAG	26900 fluorescence intensity (a.u.)
CATCCATCCTCCATCCTTCATCCGCCGCGACGAAGAGAAACGGAGTCACCTAGTGCAG	3880 fluorescence intensity (a.u.)
GCTGACCTACACGTTGCTCCTTCTCATGCTCCTTCTATTTCGGAGTCACCTAGTGCAG	3650 fluorescence intensity (a.u.)
CCCCGTCCCGTACACGTCTATCCAAATGGCCACGTTAATCCGGAGTCACCTAGTGCAG	4020 fluorescence intensity (a.u.)
GGCTGGCGTGTACGCTTCTGGTGGTATCCACATCGGCCCGCGGAGTCACCTAGTGCAG	3320 fluorescence intensity (a.u.)
GCCAGAGCCGTCCGTTGTGTTGTGTGTCACCTTTCCGCGCCGGAGTCACCTAGTGCAG	5320 fluorescence intensity (a.u.)
TATGGCCAACTTTGCATTCTATCTGTATTGTATGTTCAGTCGGAGTCACCTAGTGCAG	25000 fluorescence intensity (a.u.)
ATCGGTGGTGGTGGTGGTGGTGGCCATGAGTCTCGTTTGACGGAGTCACCTAGTGCAG	4900 fluorescence intensity (a.u.)
AGTACTTCATTTAACCGAAAATATGAGGCGACCAACGTGACGGAGTCACCTAGTGCAG	28900 fluorescence intensity (a.u.)
GTAGTCGTAATGTCATCGTCATCGACATCGATGTGTTGCTCGGAGTCACCTAGTGCAG	4940 fluorescence intensity (a.u.)
ACGGTCAGTCGCACACGTCCGAGGCCTATAAACCTAAACCCGGAGTCACCTAGTGCAG	3890 fluorescence intensity (a.u.)
TTAAATTTGAAACAGTTTGACTTTGACCAGTCAAAGTCTTCGGAGTCACCTAGTGCAG	8060 fluorescence intensity (a.u.)
ACCTCCATCTCCATGGCCCATGGCATCACCGCGTCGGCGCCGGAGTCACCTAGTGCAG	3200 fluorescence intensity (a.u.)
ACTATTTCTCCAGATAGTAGTAGTAACTCTTACGTCATGGCGGAGTCACCTAGTGCAG	4910 fluorescence intensity (a.u.)
GAAAGAAAGAAGGTATTGGCGTGGACACCCTGACATGTGGCGGAGTCACCTAGTGCAG	3740 fluorescence intensity (a.u.)
TTGTGTGTGCACGTGATGTGAGTGTCACGAGGTCAAATCCCGGAGTCACCTAGTGCAG	3700 fluorescence intensity (a.u.)
CCTGTGCGTGGTCGGGTTAATTTGTCAGTCTGTCACTTACCGGAGTCACCTAGTGCAG	3200 fluorescence intensity (a.u.)
CGGCGGCGGCGTCAGCGTCCGCGACGTGCCGGTGGTGCTCCGGAGTCACCTAGTGCAG	3640 fluorescence intensity (a.u.)

Sequence	binding signal
ACGAAGATCAGATCAGAAAATATCTTATCAGGTCTCGTCTCGGAGTCACCTAGTGCAG	24100 fluorescence intensity (a.u.)
CCCCTCTCTAGTGACCTCAATCCTAGACGGTGGCATCCGGCGGAGTCACCTAGTGCAG	3920 fluorescence intensity (a.u.)
CCCCGGACTCCCACCTCGACCGCGTGGCCCTCTCCCTCGCCGGAGTCACCTAGTGCAG	4440 fluorescence intensity (a.u.)
TCTTATTTTCTTGGATAATTCAACTGTGACGATGACCTCTCGGAGTCACCTAGTGCAG	3540 fluorescence intensity (a.u.)
CACTTCAGCCTTCAAGCCACACTAGCATTGACAGCGTCAGCGGAGTCACCTAGTGCAG	4350 fluorescence intensity (a.u.)
GCGCAGCTGGCGTGGCAGTGCTGTCCTGCCACGCCATCATCGGAGTCACCTAGTGCAG	16200 fluorescence intensity (a.u.)
TATCTGATGAGAGCAGATTGCCACACATCACAGCATGCAGCGGAGTCACCTAGTGCAG	3640 fluorescence intensity (a.u.)
TAAAGTGAATCACGCCCACGCGTGATCGTCTTGTCACATCCGGAGTCACCTAGTGCAG	5380 fluorescence intensity (a.u.)
ACCCTCTAAAATTCTCGCTCGCCCTCCTCCTTAATCCCGGCGGAGTCACCTAGTGCAG	3910 fluorescence intensity (a.u.)
CTCGCGTCGCGTCCTGCTGACTCCTCTCCTCCTCCGCCAGCGGAGTCACCTAGTGCAG	9610 fluorescence intensity (a.u.)
TTCCTCTTCTCTTCTGACCCAAGAAGAGCGGGCCTGTTTGCGGAGTCACCTAGTGCAG	3540 fluorescence intensity (a.u.)
GATCGCGGGGCGTGTTAATTCAAATGACGTTAGTCCTGAACGGAGTCACCTAGTGCAG	3480 fluorescence intensity (a.u.)
AACGGAGATAGCTAGCCGTCTCGTCAAAGCTGTGTCATCACGGAGTCACCTAGTGCAG	8540 fluorescence intensity (a.u.)
TACATTTTGGGACGGAGGTAGTATAGCTTAACCGATCATCCGGAGTCACCTAGTGCAG	35000 fluorescence intensity (a.u.)
CATTTGGTGAGGCTTCGGGAGGTCACCAGAATTGTTCCTGCGGAGTCACCTAGTGCAG	3260 fluorescence intensity (a.u.)
TGCAAAAGTAAAATCCAACGTGGCACGCCCCAGCGTGCGACGGAGTCACCTAGTGCAG	10100 fluorescence intensity (a.u.)
TCTGCAGTGCACACGAGTCAGAGTCATGCTCTTGTCTTGCCGGAGTCACCTAGTGCAG	3500 fluorescence intensity (a.u.)
CAGTTTTAAACGGGTTATCTCTTGTAATATGTATACAGCCCGGAGTCACCTAGTGCAG	3240 fluorescence intensity (a.u.)
GGTCTTCATCTCTGCACGAATCGTAAGGTAATCATCAGAGCGGAGTCACCTAGTGCAG	3240 fluorescence intensity (a.u.)
TAACTGGTTCCACCTGTCATACACACACTGTGTCTTAGAGCGGAGTCACCTAGTGCAG	3270 fluorescence intensity (a.u.)
CCTAATTAATCCATGATTAGTCATAAGTGTTACAATAATCCGGAGTCACCTAGTGCAG	25600 fluorescence intensity (a.u.)

Quoted at random: two entries already listed.
Sequence	binding signal
TATCTGATGAGAGCAGATTGCCACACATCACAGCATGCAGCGGAGTCACCTAGTGCAG	3640 fluorescence intensity (a.u.)
CCTGTGCGTGGTCGGGTTAATTTGTCAGTCTGTCACTTACCGGAGTCACCTAGTGCAG	3200 fluorescence intensity (a.u.)
